# From article PMC6036246, “SAV4189, a MarR-Family Regulator in Streptomyces avermitilis, Activates Avermectin Biosynthesis” (Frontiers in Microbiology, 2018)
# For at least one entry, the source does not settle the construct or the ends of the probe. For some assays here: Negatives hold for the conditions tested. For some assays here: Protein sequences can lack the tags named with them. For some assays here: The comparison behind a weaker result is the experiment's own reference, which may not be listed here.
# Assays:
# [1] = test system: T1, His6-SAV4189 (Streptomyces avermitilis); test: EMSA; settings: EMSA as in Luo et al. 2014 (buffer not given), 0.15-0.3 nM DIG probe, footprinting 400 ng probe in 25 ul, 30 min at 25 C, recombinant protein, protein details: His6 (pET-28a), label: DIG 3' end
# T1 sequence (looked up, limits assumed): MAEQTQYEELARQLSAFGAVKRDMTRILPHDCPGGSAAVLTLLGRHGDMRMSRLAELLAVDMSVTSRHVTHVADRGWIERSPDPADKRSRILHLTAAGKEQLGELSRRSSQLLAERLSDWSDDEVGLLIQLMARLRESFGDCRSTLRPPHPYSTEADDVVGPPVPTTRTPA
# [2] = test system: T1, His6-SAV4189 (Streptomyces avermitilis); test: competition with a labelled probe; settings: 50- and 150-fold competitor, differences slight; EMSA as in Luo et al. 2014 (buffer not given), 0.15-0.3 nM DIG probe; footprinting 400 ng probe in 25 ul, 30 min at 25 C; recombinant protein; protein details: His6 (pET-28a); label: DIG 3' end, unlabeled as competitor
# [3] = test system: T1, His6-SAV4189 (Streptomyces avermitilis); test: DNase I footprinting; settings: sites A and B protected; recombinant protein; protein details: His6 (pET-28a); label: 5' FAM; probe letters rebuilt from the primers and the genome
# [4] = 200, 400 nM protein, probe letters rebuilt from the primers and the genome
# [5] = 62.5-250 nM protein, unlabeled as competitor
sequence,measurement,setting,value
AAGTCCTCGCCTTCTCCAGGACTCAGGCGGTGAACCGGATCCTCCCCGGCACCGCGGTGATGGTGAAGCTGGGGTCGTGCATGAGGGATTCAGTGGGACGGCACGGCAGTCACGCGTGCTCCGAACGGTCCGCCGCCTCCCGATTCCCCCCGGGTCCTGCCTGTCCACAGCCGTCGAACGACTAGGCGGACGCCGACAGGTATAGTCCACTTCTTGCCAGCGGAGCAACATCGAACGCACG (double strand) [ngcEp],binding result,[1]; [4],no binding
CACGTACGCCACCTGGTGGATGGTTGCCCTAAGCAACGAAGCCATGGCCGACCAGGCCC (double strand) [Probe B2],binding result,[1]; [5],binds
same,binding result,[2],binds
CACGTACGCCACCTGGTGGTAGTTTGCCTGCGGCAACCAAGCCATGGCCGACCAGGCCC (double strand) [Probe B1],binding result,[1]; [5],binds
same,binding result,[2],binds more weakly
CATCACACCTCCCGTATTCGTTGCTTAGGGCAACCATAGGAAAGTTGGTTGCCGCAGGCAAACTAAATAGGGTCTTCAGGGATAAAAACTTGGCAAAGGCAAGTATTGGCAGGCGTAAAGCCGCAGGTGGGGAGGTCAGGAGCGGTCG (double strand) [4189p],binding result,"[1]; hygromycin B, dose-dependent disruption, 62.5 nM protein, probe letters rebuilt from the primers and the genome",binds more weakly
same,binding result,"[1]; thiostrepton (in DMSO), dose-dependent disruption, 62.5 nM protein, probe letters rebuilt from the primers and the genome",binds more weakly
CTGGTCACCGACATGTCCACGGCGAGCAGCTCGGCGAGCCTGCTCATCCGCATGTCGCCGTGGCGGCCGAGCAGCGTGAGCACGGCGGCCGAGCCGCCGGGACAGTCGTGCGGCAGGATCCGCGTCATGTCCCGCTTCACGGCACCGAAGGCGCTGAGCTGACGGGCCAGTTCCTCGTACTGCGTCTGCTCGGCCATCACACCTCCCGTATTCGTTGCTTAGGGCAACCATAGGAAAGTTGGTTGCCGCAGGCAAACTAAATAGGGTCTTCAGGGATAAAAACTTGGCAAAGGCAAGTATTGGCAGGCGTAAAGCCGCAGGTGGGGAGGTCAGGAGCGGTCGATCGACGCCCTGCCCGTCCCGTGGCCGAGGGCGAGGACGTCCGGCCCGGCAGGGGCCCCACTTGGGTAGTCCCCGCGTATTCGCTAGGGTCCTGGGCCATGGCTAACACCCAGGGCCCCGAGGGCAACTACGACCCCGCCGGCAGCACCCAGATGTTCCGTGCCTTCGT (double strand) [sav_4188-sav_4189 intergenic footprint probe],binding result,[3],binds
GACGATCTCACCCGCACCGGGTGCGGGGGGTGGGCCGGAGGTGCGCCCGGGACCCGTGAGGTCCGTACGGCGGGCGGTGAGTTGGGTTGTGCGGTCCACTCAGGTCTCCCCGAAGACGTCCGGCCAGGCGGTTCGGCAGTAGCTACCGTAGGGTTACGTCTATTTAACACGCAAAACTCAATATGTAATGCAGAGTTGGTGAACGCAAGAGGGTGTGCATGAACGGAAGG (double strand) [5653p],binding result,[1]; [4],binds
GCATCGGATTCCTGTGTGAACGGGCGACAGCGGCCTGACCCGAGGGCGGTTGAGGGGGCGCCGACCGCAGGCCGCGCGCGTCCTCCGCCCCAACTCATCCTGCGCGTACGTGTCCTGACGGCGCGTCAGGATGGTGTCCCGATTGGATCAAGCGGAAACGCATTGTTTCCCCAGGTGTAAATTGAATCCTTAAACAGTTCCCTTTCATATAATCAAAATTCACGCTGGGCAAAAGGGTTGGATTCGGCACTTGAGTGTGAATAGCCACGATTCGTACTCGCCGGTAGATGGCTCGTTTAGGAC (double strand) [pks1-3p],binding result,[1]; [4],binds
GCCTGGTCCTCCGAACTCCCCATAGGCCAGGCCGCCTTCGCGCCGCCGTCCCTCTGGACCCTTGCTCGCGGGTGCGGCGATGGCCTTCTCCTCCGGCTCGGGCGGTCAATCCGCCCGAGCCGTTTCCGCGGTCACCGCACCGCCATACATACCGGTCACCCGGTATTCCATTCGGTGTTGCAGCACGCGACCCACTGCGCATCCCACTCGTGAATTGTGGACCGCCATCCGGGGCACGGATGTCTCCAGGAAGGAACTCCTTCACCCTCGCGAACACCACCTCAGAATCCCACGATCATCAGTTAATCATCAAAGTCAGCGACCTTGACACTACCCCGCCCACCAGGGCAAATTCATAACACTGACCATCACCTCTGATGCTGATCAACCCAGCCCGCACGGCCGCGACCGCTTTTGCTCAAGCAATCGAAATCCCCGAGACACGCTTTCTTGGAAAAAGGAGAAATAAGAACATCATGCAGGGAGTTTCCTGTCTGCACC (double strand) [aveRp],binding result,"[1]; 125 and 250 nM protein, probe letters rebuilt from the primers and the genome",no binding
GTACGCCACCTGGTGGTGCCAATACTTGCCTTTGCCAAGTTTTGCCATGGCCGACCAGG (double strand) [Probe A],binding result,[1]; [5],binds
same,binding result,[2],binds
GTACGTGCTCCATTCCAGGATCTTGCCGTACGCGGGTGTCGTGCCGGTAGCGCTTTCCCTGTACGAGGGCTTGCCCGAACGAAGAAACGGGCCCGGGCCACTCGAAACCGAGTGGCCCGGGCCCGCACGCGCGCGTGGAGCGCGAAAACGACATCGCCGCCCTGAAGGCGTACGAAAACGTCAGTCCTTCG (double strand) [add4p],binding result,[1]; [4],no binding
TCTTGCGTGCGTGTCCCACGGGTCACTCCTCACTTTTGTCAGTGCAAAGTGACCCGACGGTAACCGCAGCTCCTTACCTTAAGTAACCCGTCGGTAAGTTACGTGCCAGTAACGATTGTTGGAATGGCCTGAAACCTAGGAGGCGCGGTGCGAGTTGCGGGGAGCCACGACCGGCGCCGGGGTCTGCGCGGCCCGGGTGACGTCCGCGACGAGTTCGACGACATC (double strand) [1959p],binding result,[1]; [4],binds
TGCCATACGTTGAATATGTCCGGGCGGCCGGCGTGCAGAGACCTTTCGTACGCCGGCTGTCCCCGCAAGCCAATGGCGAGCGCGCCCGGACGCCTGCGTCACAGGCACCCTCCTGCGCCACAAAGCGCTGCCACAGCACCACCTCCGCCGAACCGACGGCACCCCTCACACCAGCAGCAGCACCGACGTAACCCTCAGCGTCTCCCCTCAAGACGCCACTTCGCCGGAGGCAACACCGTGAAGGAAATCCTGGACG (double strand) [ccrA2p],binding result,[1]; [4],no binding
TGTGGTTCGAGCTGGCGGTGCCCGGCTGAGTCGTACCGCTCGGGGCGGATGCCGAGGGGCGGCTCCGGGGGCCGGCGCGGAGGGGTGGCGCAAGGGGCGCGCCGGGAGCGCACGGAGGGCGATTGGTTCAGGCCAGTGGCGCCTGCGAGAGTCTTTGGTTCGACGGGGCGCCACCTGGTTAGAAGACTGGGAGTATGT (double strand) [prpM3p],binding result,[1]; [4],binds
